In the supplement of paper PMC6411743:
± gives the standard deviation of the averaged measurements. This is one part of the list.

How the values were obtained:
Experiment in all cases: NP40-soluble protein abundance relative to vehicle (solubility fold change) (ratio); higher = more soluble protein in presence of GTP
AATF = molecular target: T1, AATF (UniProt Q9NY61)
T1 sequence (whole entry): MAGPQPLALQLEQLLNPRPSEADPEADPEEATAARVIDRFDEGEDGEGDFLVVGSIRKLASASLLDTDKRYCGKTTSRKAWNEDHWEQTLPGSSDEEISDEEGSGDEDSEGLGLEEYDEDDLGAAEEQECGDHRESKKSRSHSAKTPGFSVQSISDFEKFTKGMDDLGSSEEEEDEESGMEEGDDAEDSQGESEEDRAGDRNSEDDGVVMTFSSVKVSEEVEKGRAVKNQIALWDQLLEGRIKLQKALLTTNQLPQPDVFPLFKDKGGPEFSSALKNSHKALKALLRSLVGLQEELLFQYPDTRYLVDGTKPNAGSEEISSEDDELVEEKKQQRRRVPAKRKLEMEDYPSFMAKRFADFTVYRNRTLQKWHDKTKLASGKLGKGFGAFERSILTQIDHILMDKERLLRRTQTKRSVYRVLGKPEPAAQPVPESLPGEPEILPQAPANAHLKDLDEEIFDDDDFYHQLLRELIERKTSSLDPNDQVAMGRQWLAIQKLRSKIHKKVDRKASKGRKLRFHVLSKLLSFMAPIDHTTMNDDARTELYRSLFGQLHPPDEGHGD
Procedure, shortened: (§1)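 Jurkat crude lysate (Dounce-homogenised) was treated with eight concentrations from 0.1 to 10 mM for 10 min at room temperature, then 3 min at 37 °C. It was solubilised with 0.8% NP40 and benzonase (60 min, 4 °C) and ultracentrifuged, and the supernatant was TMT-labelled for LC-MS/MS. Intensities were vsn-normalised, and the value is the fold change against the NP40-processed vehicle per replicate, from three independent experiments.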

ATXN10 = molecular target: T2, ATXN10 (UniProt Q9UBB4)
T2 sequence (whole entry): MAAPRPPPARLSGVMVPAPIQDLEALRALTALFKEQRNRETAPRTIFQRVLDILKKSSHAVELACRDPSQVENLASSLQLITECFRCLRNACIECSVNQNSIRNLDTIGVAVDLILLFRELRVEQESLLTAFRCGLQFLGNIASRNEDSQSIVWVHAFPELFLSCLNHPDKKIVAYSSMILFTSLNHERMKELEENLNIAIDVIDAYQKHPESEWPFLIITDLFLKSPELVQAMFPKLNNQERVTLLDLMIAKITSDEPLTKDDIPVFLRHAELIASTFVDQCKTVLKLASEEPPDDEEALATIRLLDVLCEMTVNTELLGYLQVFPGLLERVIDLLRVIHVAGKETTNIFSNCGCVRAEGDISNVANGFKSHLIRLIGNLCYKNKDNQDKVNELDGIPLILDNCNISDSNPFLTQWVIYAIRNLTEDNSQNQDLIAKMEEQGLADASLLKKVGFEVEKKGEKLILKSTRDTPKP
Procedure, shortened: as §1

GGA2 = molecular target: T3, GGA2 (UniProt Q9UJY4)
T3 sequence (whole entry): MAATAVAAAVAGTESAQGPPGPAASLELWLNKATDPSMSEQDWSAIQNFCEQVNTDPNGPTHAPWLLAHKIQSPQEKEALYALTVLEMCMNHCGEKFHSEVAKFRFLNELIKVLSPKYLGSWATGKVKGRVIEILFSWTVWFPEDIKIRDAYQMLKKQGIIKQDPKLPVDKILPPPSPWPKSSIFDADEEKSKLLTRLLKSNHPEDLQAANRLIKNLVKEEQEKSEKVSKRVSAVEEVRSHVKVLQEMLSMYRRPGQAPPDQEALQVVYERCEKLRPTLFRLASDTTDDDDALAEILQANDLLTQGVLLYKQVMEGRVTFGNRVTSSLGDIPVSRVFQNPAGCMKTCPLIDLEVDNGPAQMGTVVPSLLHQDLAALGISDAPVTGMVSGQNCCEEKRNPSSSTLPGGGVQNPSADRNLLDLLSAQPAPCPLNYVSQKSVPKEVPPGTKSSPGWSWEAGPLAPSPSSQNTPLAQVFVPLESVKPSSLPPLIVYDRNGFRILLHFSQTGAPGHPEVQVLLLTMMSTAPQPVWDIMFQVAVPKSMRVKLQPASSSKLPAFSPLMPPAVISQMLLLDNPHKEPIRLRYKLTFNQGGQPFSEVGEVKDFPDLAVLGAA
Procedure, shortened: as §1

MED17 = molecular target: T4, MED17 (UniProt Q9NVC6)
T4 sequence (whole entry): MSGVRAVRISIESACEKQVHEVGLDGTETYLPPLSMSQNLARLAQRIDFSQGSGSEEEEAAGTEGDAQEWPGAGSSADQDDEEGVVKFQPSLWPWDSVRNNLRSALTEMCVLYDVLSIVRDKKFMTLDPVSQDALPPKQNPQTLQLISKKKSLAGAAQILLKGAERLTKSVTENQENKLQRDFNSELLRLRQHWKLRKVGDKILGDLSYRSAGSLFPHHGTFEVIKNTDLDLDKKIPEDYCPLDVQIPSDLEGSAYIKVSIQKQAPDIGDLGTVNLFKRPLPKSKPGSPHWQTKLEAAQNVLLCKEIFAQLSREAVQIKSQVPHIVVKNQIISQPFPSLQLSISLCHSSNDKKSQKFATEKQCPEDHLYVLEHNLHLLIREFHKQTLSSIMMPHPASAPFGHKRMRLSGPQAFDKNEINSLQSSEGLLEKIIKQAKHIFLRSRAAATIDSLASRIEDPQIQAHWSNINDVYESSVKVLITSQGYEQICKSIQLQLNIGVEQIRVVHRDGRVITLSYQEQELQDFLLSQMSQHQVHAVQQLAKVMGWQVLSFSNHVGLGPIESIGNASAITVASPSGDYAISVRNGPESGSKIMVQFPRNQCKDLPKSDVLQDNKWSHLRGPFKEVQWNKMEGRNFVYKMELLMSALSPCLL
Procedure, shortened: as §1

For `Nc1nc2c(ncn2[C@@H]2O[C@H](COP(=O)(O)OP(=O)(O)OP(=O)(O)O)[C@@H](O)[C@H]2O)c(=O)[nH]1` [guanosine triphosphate], the NP40-soluble protein abundance (AATF; concentration: 0.1mM) was 0.928 ± 0.17, the NP40-soluble protein abundance (AATF; concentration: 0.5mM) was 0.957 ± 0.15 and the NP40-soluble protein abundance (AATF; concentration: 1mM) was 1.01 ± 0.17. The NP40-soluble protein abundance (AATF; concentration: 2mM) was 1.03 ± 0.21, the NP40-soluble protein abundance (AATF; concentration: 4mM) was 1.13 ± 0.23 and the NP40-soluble protein abundance (AATF; concentration: 6mM) was 1.15 ± 0.26. It also gave an NP40-soluble protein abundance (AATF; concentration: 8mM) of 1.16 ± 0.21, an NP40-soluble protein abundance (AATF; concentration: 10mM) of 1.29 ± 0.33 and an NP40-soluble protein abundance (ATXN10; concentration: 0.1mM) of 0.968 ± 0.014. It also gave an NP40-soluble protein abundance (ATXN10; concentration: 0.5mM) of 0.965 ± 0.022, an NP40-soluble protein abundance (ATXN10; concentration: 1mM) of 0.928 ± 0.03 and an NP40-soluble protein abundance (ATXN10; concentration: 2mM) of 0.9 ± 0.045. It also gave an NP40-soluble protein abundance (ATXN10; concentration: 4mM) of 0.892 ± 0.046, an NP40-soluble protein abundance (ATXN10; concentration: 6mM) of 0.886 ± 0.042 and an NP40-soluble protein abundance (ATXN10; concentration: 8mM) of 0.866 ± 0.061. The NP40-soluble protein abundance (ATXN10; concentration: 10mM) was 0.855 ± 0.064, the NP40-soluble protein abundance (GGA2; concentration: 0.1mM) was 1.02 ± 0.097 and the NP40-soluble protein abundance (GGA2; concentration: 0.5mM) was 0.916 ± 0.067. It also gave an NP40-soluble protein abundance (GGA2; concentration: 1mM) of 0.979 ± 0.12, an NP40-soluble protein abundance (GGA2; concentration: 2mM) of 0.971 ± 0.1 and an NP40-soluble protein abundance (GGA2; concentration: 4mM) of 0.977 ± 0.11. The NP40-soluble protein abundance (GGA2; concentration: 6mM) was 0.934 ± 0.1, the NP40-soluble protein abundance (GGA2; concentration: 8mM) was 0.972 ± 0.12 and the NP40-soluble protein abundance (GGA2; concentration: 10mM) was 0.927 ± 0.094. For the same compound, the NP40-soluble protein abundance (MED17; concentration: 0.1mM) was 1.073 ± 0.0088, the NP40-soluble protein abundance (MED17; concentration: 0.5mM) was 1.1 ± 0.053 and the NP40-soluble protein abundance (MED17; concentration: 1mM) was 1.09 ± 0.075. The NP40-soluble protein abundance (MED17; concentration: 2mM) was 1.14 ± 0.14, the NP40-soluble protein abundance (MED17; concentration: 4mM) was 1.18 ± 0.14 and the NP40-soluble protein abundance (MED17; concentration: 6mM) was 1.15 ± 0.17. It also gave an NP40-soluble protein abundance (MED17; concentration: 8mM) of 1.18 ± 0.19 and an NP40-soluble protein abundance (MED17; concentration: 10mM) of 1.14 ± 0.16.
